{"source": "PubChem BioAssay AID1159578 (Peter MacCallum Cancer Centre, 2015)", "aim": "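Genome-wide hunt for genes controlling movement of lymphatic endothelial cells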 (primary screen)", "cell system": "human lymphatic endothelial cells", "knock-down reagent": "siRNA pool against human genes, 40 nM", "time to read-out": "48 h after transfection", "detection": "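High-content imaging of dye-stained cells in a scratch assay measures filled wound area and nuclei per well; duplicate means given as ratio to mock and robust z-score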", "reading the numbers": "migration robust z-score: higher = faster migration into the scratch; nuclei per well: higher = more cells in the well", "hit rule": "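Pools averaging fewer than 3300 nuclei are never called; remaining pools count as changed when migration robust z lies outside -2 to 2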", "calls": "active = migration changed; inactive = no migration change, or too few cells", "note": "Here is one part, drawn at random, of about 18,000 deposited reagents. About 1,030 of all reagents (5.7%) were called active. 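Inactive calls also include pools with fewer than 3300 nuclei, whose migration was not assessed.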 Raw values are not corrected between plates. Not all columns of the deposit are shown."}
{"gene knocked down":"DKK4 (dickkopf Wnt signaling pathway inhibitor 4)","migration robust z-score":1.86,"nuclei per well, duplicate mean":3810,"Outcome":"inactive"}
{"gene knocked down":"ANXA5 (annexin A5)","migration robust z-score":-0.18,"nuclei per well, duplicate mean":5486,"Outcome":"inactive"}
{"gene knocked down":"TUT7 (terminal uridylyl transferase 7)","migration robust z-score":0.6,"nuclei per well, duplicate mean":6166,"Outcome":"inactive"}
{"gene knocked down":"LCLAT1 (lysocardiolipin acyltransferase 1)","migration robust z-score":0.75,"nuclei per well, duplicate mean":6450,"Outcome":"inactive"}
{"gene knocked down":"USP9X (ubiquitin specific peptidase 9 X-linked)","migration robust z-score":0.98,"nuclei per well, duplicate mean":6646,"Outcome":"inactive"}
{"gene knocked down":"EIF4A3 (eukaryotic translation initiation factor 4A3)","migration robust z-score":-1.92,"nuclei per well, duplicate mean":4144,"Outcome":"inactive"}
{"gene knocked down":"DOCK6 (dedicator of cytokinesis 6)","migration robust z-score":-0.54,"nuclei per well, duplicate mean":5492,"Outcome":"inactive"}
{"gene knocked down":"ATAD3A (ATPase family AAA domain containing 3A)","migration robust z-score":1.09,"nuclei per well, duplicate mean":6848,"Outcome":"inactive"}
{"gene knocked down":"PTH2 (parathyroid hormone 2)","migration robust z-score":-2.66,"nuclei per well, duplicate mean":5473,"Outcome":"active"}
{"gene knocked down":"ABCG8 (ATP binding cassette subfamily G member 8)","migration robust z-score":0.7,"nuclei per well, duplicate mean":5202,"Outcome":"inactive"}
{"gene knocked down":"ERLEC1 (endoplasmic reticulum lectin 1)","migration robust z-score":-1.48,"nuclei per well, duplicate mean":6678,"Outcome":"inactive"}
{"gene knocked down":"ALKBH7 (alkB homolog 7, RNA demethylase)","migration robust z-score":-0.36,"nuclei per well, duplicate mean":7653,"Outcome":"inactive"}
{"gene knocked down":"CNOT11 (CCR4-NOT transcription complex subunit 11)","migration robust z-score":0.09,"nuclei per well, duplicate mean":5362,"Outcome":"inactive"}
{"gene knocked down":"MLYCD (malonyl-CoA decarboxylase)","migration robust z-score":2.17,"nuclei per well, duplicate mean":5827,"Outcome":"active"}
{"gene knocked down":"NRG4 (neuregulin 4)","migration robust z-score":0.32,"nuclei per well, duplicate mean":6479,"Outcome":"inactive"}
{"gene knocked down":"CFAP58 (cilia and flagella associated protein 58)","migration robust z-score":-0.4,"nuclei per well, duplicate mean":6786,"Outcome":"inactive"}
{"gene knocked down":"DNASE1L3 (deoxyribonuclease 1L3)","migration robust z-score":-0.65,"nuclei per well, duplicate mean":5169,"Outcome":"inactive"}
{"gene knocked down":"TVP23C (trans-golgi network vesicle protein 23 homolog C)","migration robust z-score":0.6,"nuclei per well, duplicate mean":4542,"Outcome":"inactive"}
{"gene knocked down":"CACNG6 (calcium voltage-gated channel auxiliary subunit gamma 6)","migration robust z-score":-0.8,"nuclei per well, duplicate mean":5304,"Outcome":"inactive"}
{"gene knocked down":"MS4A7 (membrane spanning 4-domains A7)","migration robust z-score":0.18,"nuclei per well, duplicate mean":3792,"Outcome":"inactive"}
{"gene knocked down":"PADI1 (peptidyl arginine deiminase 1)","migration robust z-score":-0.13,"nuclei per well, duplicate mean":6300,"Outcome":"inactive"}

Ordered by “migration robust z-score” (ascending): 2 of the entries above.
{"gene knocked down":"PADI1 (peptidyl arginine deiminase 1)","migration robust z-score":-0.13,"nuclei per well, duplicate mean":6300,"Outcome":"inactive"}
{"gene knocked down":"MS4A7 (membrane spanning 4-domains A7)","migration robust z-score":0.18,"nuclei per well, duplicate mean":3792,"Outcome":"inactive"}
